Results: the supplement of paper PMC4604168 (melanoma cell lines)
The other results are listed elsewhere or left out. Repeats are few or missing, and single values can be far off.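 The apoptosis fraction was the count of cleaved-PARP antibody-stained nuclei relative to all DNA-stained nuclei, imaged in 1,536-well plates. Screening doses were set so most cells survived, and baseline and induced cleaved-PARP levels vary greatly across cell lines.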

Assays:
Experiment in all cases: cleaved PARP positive nuclei fraction relative to DMSO control; melanoma cells; higher = more apoptosis
Settings in all cases: library dose: low library concentration; 72 h
[1] = tested on: 501Mel
[2] = tested on: A101D
[3] = tested on: A2058
[4] = tested on: C32
[5] = tested on: CBRC008 (line from a melanoma biopsy)
[6] = tested on: CBRC014 (line from a melanoma biopsy)
[7] = tested on: CBRC016 (line from a melanoma biopsy)
[8] = tested on: CBRC017 (line from a melanoma biopsy)

Structure (SMILES) | cleaved PARP positive nuclei fraction [1] [%] | cleaved PARP positive nuclei fraction [2] [%] | cleaved PARP positive nuclei fraction [3] [%] | cleaved PARP positive nuclei fraction [4] [%] | cleaved PARP positive nuclei fraction [5] [%] | cleaved PARP positive nuclei fraction [6] [%] | cleaved PARP positive nuclei fraction [7] [%] | cleaved PARP positive nuclei fraction [8] [%]
O=C(/C=C/c1cccnc1)NCCCCC1CCN(C(=O)c2ccccc2)CC1 + O=C(O)C(=O)Nc1sc2c(c1C(=O)O)CCNC2 [TCS401] (first compound 0.01 µM, partner dose 1.66667 µM) | 42.1 | 36.5 | 34.7 | 34.2 | 1130 | 75.2 | 141 | 332
Cc1ccc(Nc2nccc(N(C)c3ccc4c(C)n(C)nc4c3)n2)cc1S(N)(=O)=O [Pazopanib] + COC(=O)c1sccc1S(=O)(=O)Nc1ccc(Nc2ccccc2)cc1OC [GSK0660] (first compound 0.4 µM, partner dose 1 µM) | 38 | 39.7 | 84.3 | 60.8 | 82.1 | 120 | 86.5 | 123
O=C(/C=C/c1cccnc1)NCCCCC1CCN(C(=O)c2ccccc2)CC1 + COC(=O)c1sccc1S(=O)(=O)Nc1ccc(Nc2ccccc2)cc1OC [GSK0660] (first compound 0.01 µM, partner dose 1 µM) | 81.5 | 75.2 | 105 | 130 | 1080 | 132 | 425 | 381
O=c1[nH]nc(Sc2ncc([N+](=O)[O-])s2)n1-c1ccc2c(c1)OCCO2 + O=C(Nc1ccccc1)c1cc([N+](=O)[O-])ccc1Cl [GW9662] (first compound 0.2 µM, partner dose 2 µM) | 77.6 | 21.9 | 42.7 | 36.4 | 51.6 | 105 | 207 | 350
CCCCCCCCCCCCCCCCCCOP(=O)([O-])OC1CC[N+](C)(C)CC1 [Perifosine] + CC(C)CCN1c2nc(Nc3cc(F)c(O)c(F)c3)ncc2N(C)C(=O)C1C [BID1870] (first compound 0.4 µM, partner dose 0.2 µM) | 57.2 | 27.5 | 33.8 | 49.8 | 178 | 93.8 | 44 | 326
Cc1ccc(Nc2nccc(N(C)c3ccc4c(C)n(C)nc4c3)n2)cc1S(N)(=O)=O [Pazopanib] + O=C1NC(=O)/C(=C/c2ccc(-c3ccc(F)cc3O)o2)S1 [AS252424] (first compound 0.4 µM, partner dose 1 µM) | 83 | 11.5 | 73.8 | 106 | 264 | 101 | 38.1 | 185
O=C(Nc1cc(C(F)(F)F)cc(C(F)(F)F)c1)c1cc(Cl)ccc1O + CCc1ccc(CCOc2ccc(CC3SC(=O)NC3=O)cc2)nc1 [pioglitazone] (first compound 0.016 µM, partner dose 2 µM) | 69.1 | 25.5 | 80.3 | 47.3 | 73.3 | 77.1 | 58.6 | 101
COc1cc([C@@H]2c3cc4c(cc3[C@@H](O[C@@H]3O[C@@H]5CO[C@@H](C)O[C@H]5[C@H](O)[C@H]3O)[C@H]3COC(=O)[C@H]23)OCO4)cc(OC)c1O [etoposide] + O=S(=O)(c1ccccc1)N(CC(F)(F)F)c1ccc(C(O)(C(F)(F)F)C(F)(F)F)cc1 [T0901317] (first compound 0.02 µM, partner dose 1.4 µM) | 71.3 | 33.6 | 22.2 | 46.7 | 69.5 | 112 | 82.2 | 67.9
O=C(Nc1cc(C(F)(F)F)cc(C(F)(F)F)c1)c1cc(Cl)ccc1O + O=C(Nc1ccccc1)c1cc([N+](=O)[O-])ccc1Cl [GW9662] (first compound 0.016 µM, partner dose 2 µM) | 61.9 | 71.8 | 38.8 | 81.1 | 57.2 | 111 | 246 | 184
O=C(Nc1cc(C(F)(F)F)cc(C(F)(F)F)c1)c1cc(Cl)ccc1O + O=C1NC(=O)/C(=C/c2ccc(-c3ccc(F)cc3O)o2)S1 [AS252424] (first compound 0.016 µM, partner dose 1 µM) | 65.7 | 11.4 | 121 | 194 | 208 | 210 | 92.3 | 95.4
COc1cc([C@@H]2c3cc4c(cc3[C@@H](O[C@@H]3O[C@@H]5CO[C@@H](C)O[C@H]5[C@H](O)[C@H]3O)[C@H]3COC(=O)[C@H]23)OCO4)cc(OC)c1O [etoposide] + COc1ccc(COc2ccc(Cc3cnc(N)nc3N)cc2OC)cc1 [GW2580] (first compound 0.02 µM, partner dose 1 µM) | 317 | 14.2 | 83.1 | 40.8 | 43.8 | 81.8 | 43.4 | 69.8
O=C(/C=C/c1cccnc1)NCCCCC1CCN(C(=O)c2ccccc2)CC1 + CC(C)CCN1c2nc(Nc3cc(F)c(O)c(F)c3)ncc2N(C)C(=O)C1C [BID1870] (first compound 0.01 µM, partner dose 0.2 µM) | 75.3 | 42 | 68.8 | 91.5 | 4910 | 95.8 | 576 | 420
CC[C@]1(O)C[C@H]2CN(CCc3c([nH]c4ccccc34)[C@@](C(=O)OC)(c3cc4c(cc3OC)N(C=O)[C@H]3[C@@](O)(C(=O)OC)[C@H](OC(C)=O)[C@]5(CC)C=CCN6CC[C@]43[C@@H]65)C2)C1 [vincristine] + CCCCCCCCCCCC1=C(O)C(=O)C=C(O)C1=O [Embelin] (first compound 0.0001 µM, partner dose 1.2 µM) | 80.6 | 1370 | 315 | 410 | 311 | 114 | 85.1 | 118
Cc1cn(-c2cc(NC(=O)c3ccc(C)c(Nc4nccc(-c5cccnc5)n4)c3)cc(C(F)(F)F)c2)cn1 [nilotinib] + O=c1cc(-c2cccc3c2Sc2ccccc2S3)oc(N2CCOCC2)c1 [KU55933] (first compound 0.2 µM, partner dose 1 µM) | 183 | 14.1 | 84.2 | 132 | 159 | 112 | 79.3 | 76
O=c1[nH]nc(Sc2ncc([N+](=O)[O-])s2)n1-c1ccc2c(c1)OCCO2 + N#Cc1c(O)c2c(-c3ccc(-c4ccccc4O)cc3)csc2[nH]c1=O [A769662] (first compound 0.2 µM, partner dose 2 µM) | 54.8 | 16.6 | 127 | 67 | 35.2 | 101 | 21 | 192
Cc1ccc(Nc2nccc(N(C)c3ccc4c(C)n(C)nc4c3)n2)cc1S(N)(=O)=O [Pazopanib] + Oc1nc(-c2ccc(C(F)(F)F)cc2)nc2c1CSCC2 [XAV939] (first compound 0.4 µM, partner dose 2 µM) | 85.2 | 39 | 65.9 | 65.9 | 114 | 108 | 53.6 | 69.4
CC[C@]1(O)C[C@H]2CN(CCc3c([nH]c4ccccc34)[C@@](C(=O)OC)(c3cc4c(cc3OC)N(C=O)[C@H]3[C@@](O)(C(=O)OC)[C@H](OC(C)=O)[C@]5(CC)C=CCN6CC[C@]43[C@@H]65)C2)C1 [vincristine] + Cc1cc([N+](=O)[O-])ccc1NS(=O)(=O)c1cc(Cl)ccc1Cl [FH535] (first compound 0.0001 µM, partner dose 1 µM) | 113 | 47.6 | 2090 | 402 | 464 | 191 | 472 | 371
O=C(/C=C/c1cccnc1)NCCCCC1CCN(C(=O)c2ccccc2)CC1 + O=C(Nc1ccccc1)c1cc([N+](=O)[O-])ccc1Cl [GW9662] (first compound 0.01 µM, partner dose 2 µM) | 284 | 27.9 | 104 | 73.7 | 3840 | 93.7 | 596 | 364
N#CC[C@H](C1CCCC1)n1cc(-c2ncnc3[nH]ccc23)cn1 [ruxolitinib] + O=C(Nc1ccccc1)c1cc([N+](=O)[O-])ccc1Cl [GW9662] (first compound 1 µM, partner dose 2 µM) | 84.5 | 18.8 | 57.4 | 38.3 | 75.7 | 128 | 145 | 103
O=C(Nc1cc(C(F)(F)F)cc(C(F)(F)F)c1)c1cc(Cl)ccc1O + CCN(CC)CCCCNc1ncc2cc(-c3cc(OC)cc(OC)c3)c(NC(=O)NC(C)(C)C)nc2n1 [PD173074] (first compound 0.016 µM, partner dose 0.1 µM) | 76.4 | 28.4 | 63 | 200 | 123 | 76.1 | 37.7 | 64.1
COc1cc([C@@H]2c3cc4c(cc3[C@@H](O[C@@H]3O[C@@H]5CO[C@@H](C)O[C@H]5[C@H](O)[C@H]3O)[C@H]3COC(=O)[C@H]23)OCO4)cc(OC)c1O [etoposide] + CC(C)CCN1c2nc(Nc3cc(F)c(O)c(F)c3)ncc2N(C)C(=O)C1C [BID1870] (first compound 0.02 µM, partner dose 0.2 µM) | 68.5 | 20.1 | 56.2 | 39.7 | 219 | 103 | 121 | 87
COc1cc([C@@H]2c3cc4c(cc3[C@@H](O[C@@H]3O[C@@H]5CO[C@@H](C)O[C@H]5[C@H](O)[C@H]3O)[C@H]3COC(=O)[C@H]23)OCO4)cc(OC)c1O [etoposide] + CCN(CC)CCCCNc1ncc2cc(-c3cc(OC)cc(OC)c3)c(NC(=O)NC(C)(C)C)nc2n1 [PD173074] (first compound 0.02 µM, partner dose 0.1 µM) | 61.7 | 22.2 | 43.6 | 81.8 | 178 | 92.5 | 47 | 90.5

Some entries already given, reduced to cleaved PARP positive nuclei fraction [1] [%] and cleaved PARP positive nuclei fraction [2] [%]:

| Structure (SMILES) | cleaved PARP positive nuclei fraction [1] [%] | cleaved PARP positive nuclei fraction [2] [%] |
| --- | --- | --- |
| COc1cc([C@@H]2c3cc4c(cc3[C@@H](O[C@@H]3O[C@@H]5CO[C@@H](C)O[C@H]5[C@H](O)[C@H]3O)[C@H]3COC(=O)[C@H]23)OCO4)cc(OC)c1O [etoposide] + O=S(=O)(c1ccccc1)N(CC(F)(F)F)c1ccc(C(O)(C(F)(F)F)C(F)(F)F)cc1 [T0901317] (first compound 0.02 µM, partner dose 1.4 µM) | 71.3 | 33.6 |
| O=C(Nc1cc(C(F)(F)F)cc(C(F)(F)F)c1)c1cc(Cl)ccc1O + O=C(Nc1ccccc1)c1cc([N+](=O)[O-])ccc1Cl [GW9662] (first compound 0.016 µM, partner dose 2 µM) | 61.9 | 71.8 |
